Measured values: PMC4954681
Substitutions are numbered along the chain they refer to. Names may count otherwise. These are yes or no findings as the source states them, for the method shown. In cells and extracts the contact can be indirect. Some results given as binding are weak or reduced against the parent protein; the word gives no strength. Sequences can lack the tags named with a protein.

Chains of the proteins cited; added tags and fusions are not shown. Lines headed by an entry give the natural chain unless they say otherwise; changes in a name come on top.
UniProt P84095: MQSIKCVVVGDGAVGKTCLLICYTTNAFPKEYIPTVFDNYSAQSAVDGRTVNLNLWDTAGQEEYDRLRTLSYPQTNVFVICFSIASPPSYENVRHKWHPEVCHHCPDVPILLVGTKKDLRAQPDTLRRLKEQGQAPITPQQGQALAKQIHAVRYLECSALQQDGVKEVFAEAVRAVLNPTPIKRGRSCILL

T1: GST-fused N-terminal RhoG-binding domain of ELMO2 (UniProt Q96JJ3)
T1 sequence: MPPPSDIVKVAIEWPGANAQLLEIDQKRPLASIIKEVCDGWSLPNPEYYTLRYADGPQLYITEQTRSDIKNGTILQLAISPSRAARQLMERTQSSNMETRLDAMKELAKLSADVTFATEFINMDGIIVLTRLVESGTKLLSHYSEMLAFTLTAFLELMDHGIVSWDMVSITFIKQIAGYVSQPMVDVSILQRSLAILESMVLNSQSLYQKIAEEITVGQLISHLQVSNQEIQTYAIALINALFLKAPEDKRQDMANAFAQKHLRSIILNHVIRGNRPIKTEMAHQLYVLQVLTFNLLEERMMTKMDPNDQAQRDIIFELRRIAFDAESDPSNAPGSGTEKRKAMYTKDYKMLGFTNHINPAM

B1: Flag-tagged wild-type SGEF (protein, UniProt D3YYY8 1-869)
chain: MDGESEVDFSSNGVTPLWRRRSTPPLQLLSRSKPRPQSYQSPSGLLITDFPVEELAALPTPQTPVRVPADPDDRTVSRSPQLLSAHRRPVTNGRTVSPDYRAASPRLRRPKSPLVSYAASGGSPKSTSNGTVASPAALLSRASRTPDTPASCATDEDCTGVTASKVSSPIANGLAHKTDSSGPVSQTGQPAGDLELAPSRLSPALPHKSSEQKLPLQRLPSQGNELPNPSVVLSTNSPAALKMGKQQIIPKSLASEIKLSKSNSQNVESHRRLLKVRSMVEGLGAPLGHEGEEGEVDNDMDSPGSLRRGLRSTSYRRAVVSGFDFDSPTSSKKKNRMSQPVLKAVMEDKEKFSSLGRIKKKILKGQGTFDGEENAVLYQNYKEKALDIDSDEEPEAKEQKAEERIVIHHKPLRSTWSQLSAVKRNGLSQTVSQEERKRQEAIFEVISSEHSYLLSLEILIRMFKNSKELTDTMTKTERHHLFSNITDVWEASKKFFTELEARHQNNIFIEDISDIVEKHTASTFDPYVKYCTNEVYQQRTLQKLLATNPSFKEVLSRIESHEDCRNLPMISFLILPMQRVTRLPLLMDTICQKTPKDSPKYEVCKRALKEVSKLVRLCNEGARKMERTEMMYTINSQLEFKIKPFPLVSSSRWLVKRGELTAYVEDTVLFSKRMSKQQVYFFLFNDVLIITKKKSEESYNVNDYSLRDQLLVESCDNEELNSSPGKNPSTMLYSRQSSATHLFTLTVLSNHASEKVDMLLGAETQSERARWITALGHSSGKQPPDRTTLTQVEIIRSFTAKQPDELSLQVADVVLIYQRVGDGWYEGERLRDGERGWFPMECAKEITCQATIDKNVERMGRLLGLETNV
B2: Flag-tagged SGEF-Y527F (protein, UniProt D3YYY8 1-869)
chain: B1 chain with Y527F
B3: Flag-tagged SGEF-Y530F (protein, UniProt D3YYY8 1-869)
chain: B1 chain with Y530F

How the values were obtained:
[1] = biological target: T1, GST-fused N-terminal RhoG-binding domain of ELMO2; experiment: pull-down; 20 ug GST-ELMO-NT bound to glutathione-Sepharose beads, incubated 30 min at 4°C with lysates of HEK293T cells transfected with Myc-RhoG with or without Flag-SGEF and HA-Src-YF; 10 mM Tris-HCl pH 7.5, 100 mM NaCl, 2 mM MgCl2, 1% Nonidet P-40, 10% glycerol; anti-Myc immunoblot; only the target purified
[2] = biological target: GST-fused RhoG containing the G15A mutation (UniProt P84095); experiment: pull-down; GST-RhoG-G15A bound to glutathione-Sepharose beads, incubated 1 h with lysates of HEK293T cells transfected with Flag-SGEF (WT or mutants) alone or together with HA-Src-YF; some cells treated 30 min with 20 uM PP2 or PP3; 20 mM Tris-HCl pH 7.5, 150 mM NaCl, 2 mM MgCl2, 1% Triton X-100; anti-Flag immunoblot; only the target purified

| Molecule | binding [1] | binding [2] |
| --- | --- | --- |
| Myc-tagged RhoG (from UniProt P84095 1-191) | binds | – |
| B1 | – | binds |
| B2 | – | binds |
| B3 | – | binds |
